The campaign covered roughly 220,000 compounds. About 2,400 (1.1%) were called active. The shares of active, inactive and inconclusive entries below differ from those in the screen. Calls come from the whole dose curve; as a rule, active = well fitted inhibition curve with a large enough effect; inconclusive = small, poorly fitted or top-dose-only effect, or effect the other way; inactive = no such curve, though single readings can be large or run the other way. Potencies beside an inconclusive call are fits to weak or partial responses and may not hold up.
experiment: qHTS Multiplex Assay to Identify Dual Action Probes in a Cell Model of Huntington: Aggregate Formation (GFP); details: PC12 HttQ103-GFP aggregates, Acumen cytometry, 40 h; activity change, negative = inhibition: at 46.1 µM (top of the series) unless noted; note: nearly all actives have a fitted effect of over 60% in size
Summary of the method: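 Aggregates are detected as GFP objects 1–25 µm with signal 6 STDEV over background in lysates of induced PC12 cells. These carry Huntingtin exon 1 with 103 glutamines fused to GFP under an ecdysone promoter; compounds titrated.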
% is set by controls: 0 for no effect and ±100 for the full control effect; potency is the fitted concentration of half-maximal effect.

Compound	Potency	activity change, negative = inhibition
COc1ccc(CCNC2=CC(=O)N(c3ccc(F)cc3)C2=O)cc1	inactive	–
O=C(NCc1cccnc1)c1ccc(Cl)cc1[N+](=O)[O-]	inconclusive: 1.26 µM [inhibitor, single point]	–
COc1ccc(OC)c(NC(=O)Cn2c(-c3ccc(Cl)cc3)noc2=O)c1	inconclusive: 35.5 µM [activator, partial curve]	–
CCC(C)NC(=O)c1ccccc1NC(=O)c1ccc(CSc2ccccc2)cc1 (centres undefined)	inactive	–
CN(C)c1ccc(NC(=O)c2ccc(COc3cccc(Cl)c3)o2)cc1	inconclusive: 35.5 µM [inhibitor, single point]	–
Cc1cc2nnc(SCC(=O)Nc3cc(S(=O)(=O)N4CCOCC4)ccc3Cl)n2c2ccccc12	inconclusive: 11.2 µM [activator, partial curve]	–
CC(=O)c1c(C)[nH]c(C(=O)COC(=O)c2cc(S(=O)(=O)N(C)c3ccccc3)ccc2Cl)c1C	inconclusive: 22.4 µM [inhibitor, single point]	–
COc1ccccc1CN(Cc1cc2cc(C)ccc2[nH]c1=O)Cc1nnnn1Cc1ccco1	inactive	–
CCOC(=O)c1c(NC(=O)/C=C/C(=O)O)sc(C)c1-c1ccc(C(C)(C)C)cc1	inconclusive: 25.1 µM [inhibitor, single point]	–
COCCn1cnc2c1c(=O)n(CC(=O)OCC(=O)NCC(F)(F)F)c(=O)n2Cc1ccccc1	inconclusive: 35.5 µM [inhibitor, single point]	–
COc1ccc(-n2c(=O)c3c4c(sc3n(Cc3cccc(F)c3)c2=O)CN(C(C)=O)CC4)c(OC)c1	inactive	–
CC1(C)CCCN(C(=O)c2ccc3c(c2NCCO)C(=O)c2ccccc2C3=O)C1	inconclusive: 15.8 µM [inhibitor, single point]	–
COc1cccc(-n2nnnc2SCC(=O)Nc2cccc(NC(C)=O)c2)c1	inactive	–
Cc1ccc2cc(CN(C(=O)c3ccco3)c3ccccc3)c(=O)[nH]c2c1	inconclusive: 17.8 µM [inhibitor, single point]	–
O=c1c2ccccc2nc(N2CCN(c3ccccc3)CC2)n1Cc1ccccc1	inconclusive: 12.6 µM [inhibitor, single point]	–
CCC(C)NCCOc1ccc(C(C)(C)c2ccccc2)cc1 (centres undefined)	inconclusive: 5.62 µM [inhibitor, single point]	–
Cc1csc(NC(=O)c2nc3nc(C)cc(C)n3n2)n1	inactive	–
Cc1nonc1C(=O)N/N=C/c1ccc([N+](=O)[O-])o1	inconclusive: 35.5 µM [inhibitor, single point]	–
CC(CN1CCOCC1)OC(=O)c1ccccc1 (centres undefined)	–	inactive: -23% [at 9.22 µM]
c1ccc(COc2ccc(OCCN3CCCC3)cc2)cc1	inconclusive: 35.5 µM [inhibitor, single point]	–
C=C(CC)C(=O)c1ccc(OCC(=O)O)c(Cl)c1Cl	inconclusive: 5.62 µM [activator, single point]	–
O=C1N=C(N2CCN(Cc3ccccc3)CC2)S/C1=C/c1cccs1	–	inactive: 6.69% [at 9.22 µM]
CCOC(=O)CCSc1nc(C)c2cc(C)ccc2n1	inactive	–

Compound	Potency	activity change, negative = inhibition
Cc1ccc(S(=O)(=O)Nc2ccc(NC(=O)Nc3cccc(C(F)(F)F)c3)cc2)cc1	inconclusive: 22.4 µM [inhibitor, single point]	–
CCOC(=O)c1cc2c(=O)n3ccccc3nc2n(CCCOC)c1=NC(=O)c1ccncc1	inconclusive: 7.08 µM [activator, full curve, poor fit]	–
Cc1cc(C(=O)CSc2nc3ccccc3c(=O)[nH]2)c(C)n1C	inactive	–
O=S(=O)(c1cccs1)N1CCCc2cccc(O)c21	active: 11.2 µM	–
Cc1cccc(C(=O)N/N=C/c2ccccn2)c1	inconclusive: 11.2 µM [inhibitor, partial curve, poor fit]	–
CC1CCCC(C)N1S(=O)(=O)c1ccc(S(=O)(=O)NCCc2ccncc2)cc1 (centres undefined)	inactive	–
Fc1ccc(N/N=C/c2ccc(N3CCOCC3)cc2)c(F)c1	inconclusive: 3.55 µM [activator, single point]	–
O=C(C1CCN(S(=O)(=O)N2CCCCC2)CC1)N1CCCCC1	inactive	–
O=C(N/N=C/C=C/c1ccco1)c1cccnc1	inconclusive: 2.51 µM [activator, partial curve]	–
CC(C)Cc1nc2oc3c(NCC4CCCO4)ncnc3c2c2c1CCC2 (centres undefined)	inconclusive: 35.5 µM [inhibitor, single point]	–
Cc1ccccc1-n1c(-c2csc(C)c2C)n[nH]c1=S	inconclusive: 35.5 µM [activator, single point]	–
CCn1cc(Cl)c(C(=O)Nc2cc(C(=O)OC)cc(C(=O)OC)c2)n1	inconclusive: 35.5 µM [activator, single point]	–
Cc1ccc(OCC(=O)NNC(=O)C2CCCO2)c(C)c1 (centres undefined)	inactive	–
O=C(O)CC/C(=C\c1ccccc1[N+](=O)[O-])c1nc2ccccc2s1	inactive	–
Cc1nnc(SCC(=O)N2CC(=O)Nc3ccccc32)s1	inconclusive: 3.98 µM [activator, full curve, poor fit]	–
CC(=O)Nc1ccc(C(=O)N(C)c2ccccc2)cc1	inconclusive: 1.26 µM [inhibitor, full curve, poor fit]	–
Cc1ccsc1/C=N/NC(=O)c1ccc2nc[nH]c2c1	inactive	–
Cc1ccc(Cl)cc1N1CCN(C(=O)c2ccc(NS(=O)(=O)c3c(C)noc3C)cc2)CC1	inconclusive: 25.1 µM [inhibitor, single point]	–
Cc1nc2ccc(C(=O)O)cc2c2c1CC(C)S2 (centres undefined)	inconclusive: 0.794 µM [inhibitor, single point]	–
CC(Sc1ccsc1[N+](=O)[O-])C(=O)NCc1ccccc1 (centres undefined)	inconclusive: 35.5 µM [activator, single point]	–
COc1ccc(N2CCN(CC(O)COc3ccccc3[N+](=O)[O-])CC2)cc1 (centres undefined)	inconclusive: 11.2 µM [activator, partial curve]	–
CCSc1cc(N2CCOCC2)nc(-c2ccc(Cl)cc2)n1	inactive	–
CC12CC3CC(C)(C1)CC(CN1CCOCC1)(C3)C2	inconclusive: 8.91 µM [activator, partial curve]	–

Part of the list above, as a markdown table:

| Compound | Potency | activity change, negative = inhibition |
| --- | --- | --- |
| CC1CCCC(C)N1S(=O)(=O)c1ccc(S(=O)(=O)NCCc2ccncc2)cc1 (centres undefined) | inactive | – |
| Fc1ccc(N/N=C/c2ccc(N3CCOCC3)cc2)c(F)c1 | inconclusive: 3.55 µM [activator, single point] | – |
| O=C(C1CCN(S(=O)(=O)N2CCCCC2)CC1)N1CCCCC1 | inactive | – |
| O=C(N/N=C/C=C/c1ccco1)c1cccnc1 | inconclusive: 2.51 µM [activator, partial curve] | – |
| CC(C)Cc1nc2oc3c(NCC4CCCO4)ncnc3c2c2c1CCC2 (centres undefined) | inconclusive: 35.5 µM [inhibitor, single point] | – |
| Cc1ccccc1-n1c(-c2csc(C)c2C)n[nH]c1=S | inconclusive: 35.5 µM [activator, single point] | – |
| CCn1cc(Cl)c(C(=O)Nc2cc(C(=O)OC)cc(C(=O)OC)c2)n1 | inconclusive: 35.5 µM [activator, single point] | – |
| Cc1ccc(OCC(=O)NNC(=O)C2CCCO2)c(C)c1 (centres undefined) | inactive | – |
| O=C(O)CC/C(=C\c1ccccc1[N+](=O)[O-])c1nc2ccccc2s1 | inactive | – |
| Cc1nnc(SCC(=O)N2CC(=O)Nc3ccccc32)s1 | inconclusive: 3.98 µM [activator, full curve, poor fit] | – |
| CC(=O)Nc1ccc(C(=O)N(C)c2ccccc2)cc1 | inconclusive: 1.26 µM [inhibitor, full curve, poor fit] | – |
| Cc1ccsc1/C=N/NC(=O)c1ccc2nc[nH]c2c1 | inactive | – |
| Cc1ccc(Cl)cc1N1CCN(C(=O)c2ccc(NS(=O)(=O)c3c(C)noc3C)cc2)CC1 | inconclusive: 25.1 µM [inhibitor, single point] | – |
| Cc1nc2ccc(C(=O)O)cc2c2c1CC(C)S2 (centres undefined) | inconclusive: 0.794 µM [inhibitor, single point] | – |
| CC(Sc1ccsc1[N+](=O)[O-])C(=O)NCc1ccccc1 (centres undefined) | inconclusive: 35.5 µM [activator, single point] | – |
| COc1ccc(N2CCN(CC(O)COc3ccccc3[N+](=O)[O-])CC2)cc1 (centres undefined) | inconclusive: 11.2 µM [activator, partial curve] | – |
| CCSc1cc(N2CCOCC2)nc(-c2ccc(Cl)cc2)n1 | inactive | – |
| CC12CC3CC(C)(C1)CC(CN1CCOCC1)(C3)C2 | inconclusive: 8.91 µM [activator, partial curve] | – |

The list goes on:

Compound	Potency	activity change, negative = inhibition
Cc1ccccc1CSCCNC(=O)c1ccc(Cl)c(S(=O)(=O)N2CCOCC2)c1	inconclusive: 11.2 µM [inhibitor, partial curve]	–
CCOc1ccc(-c2cc(CCCC(=O)NCCC(C)C)no2)cc1	inconclusive: 7.94 µM [inhibitor, partial curve, poor fit]	–
O=C(NCCC1=CCCCC1)C1CCN(Cc2cnn(-c3ccccc3)c2-n2cccc2)CC1	inconclusive: 35.5 µM [inhibitor, single point]	–
O=C(Nc1cccnc1Cl)c1cc([N+](=O)[O-])ccc1Cl	inconclusive: 4.47 µM [inhibitor, full curve]	–
Cc1csc(SCC(=O)Nc2cc(S(=O)(=O)N3CCOCC3)ccc2N2CCOCC2)n1	–	inactive: 4.86% [at 9.22 µM]
CN1CCN(/N=C/c2c3ccccc3c(Cl)c3ccccc23)CC1	inconclusive: 35.5 µM [inhibitor, single point]	–
Cc1ccc(NC(=O)CNc2ccc(OC(C)C)cc2)c(C)c1	inactive	–
Cc1c(C(=O)N2CCN(c3ccccc3F)CC2)sc2nc(-c3ccccc3)cn12	inconclusive: 35.5 µM [inhibitor, single point]	–
O=C1NC(Nc2nccs2)(C(F)(F)F)C(=O)N1CCc1ccccc1 (centres undefined)	inactive	–
CCN1CCN(c2ccc(NC(=O)CCc3c(C)nc4c(-c5ccc(F)cc5)c(C)nn4c3C)cc2)CC1	inconclusive: 35.5 µM [inhibitor, single point]	–
CCc1ccc(NC(=O)CC2C(=O)N(c3cccc(C)c3)C(=O)N2C2CC2)cc1 (centres undefined)	inconclusive: 10 µM [inhibitor, partial curve]	–
CCOC(=O)C1=C(O)C(=O)NC(c2ccccc2)=C(OC2CCCCC2)C1	inconclusive: 3.55 µM [activator, partial curve]	–
Cc1[nH]n(-c2ccccc2)c(=O)c1N=Nc1ccccc1C(=O)N1CCOCC1	inconclusive: 17.8 µM [inhibitor, single point]	–
COc1cccc(Nc2cc(C)nc3ccccc23)c1	inconclusive: 31.6 µM [inhibitor, partial curve, poor fit]	–
NC(=O)c1ccc(Nc2nnc(-c3ccc(O)cc3)c3ccccc23)cc1	inconclusive: 3.55 µM [activator, partial curve]	–
CCc1ccc(S(=O)(=O)Nc2ccc(N3CCN(C)CC3)cc2)cc1	–	inactive: 8.78% [at 9.22 µM]
C/C(=N\NC(=O)c1ccccc1)c1cc2cc([N+](=O)[O-])ccc2oc1=O	inconclusive: 7.94 µM [inhibitor, partial curve, poor fit]	–
CCOC(=O)c1ccc(N2C(=O)CC(SCC(N)C(=O)OCC)C2=O)cc1 (centres undefined)	inconclusive: 3.98 µM [inhibitor, single point]	–
Cc1cc(C)cc(NC(=O)C2CCCN(c3nc(C)cc(C)n3)C2)c1 (centres undefined)	inactive	–
O=C(NCC1CCCO1)C(c1cccs1)N(C(=O)Cn1nnc(-c2cccs2)n1)C1CCCC1 (centres undefined)	inactive	–
CC(NC(=O)CCl)c1ccccc1Br (centres undefined)	inconclusive: 5.62 µM [activator, partial curve]	–
O=C(NC(=S)N(Cc1ccccc1)Cc1ccccc1)c1ccccc1F	inconclusive: 35.5 µM [inhibitor, single point]	–
CCCc1nnc(NC(=O)CCC(=O)N2CCN(S(=O)(=O)c3ccc(C)cc3)CC2)s1	–	inactive: 4.93% [at 9.22 µM]
